Data source: PubChem BioAssay AID652259 (Drosophila RNAi Screening Center, 2013)
The deposit covers about 22,000 reagents; shown is a random part of those that have a named target and a result. Of all reagents, 233 (1.1%) were called active. 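Light values are raw, unnormalised plate reads; the ratio scores behind the reporter calls were not deposited.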 A number with no mark means an inactive call. No sequences are given here. Not stated in the record: the amount of reagent, the time to read-out, the dose of the treatment.

- Assay: 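Genome-wide hunt for genes that control Wingless pathway activity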 (primary screen)
- System: Drosophila clone 8 imaginal disc epithelial cells
- Reagents: long dsRNA against Drosophila genes
- Conditions: pathway stimulated by co-transfected Wingless expression plasmid
- Measured: 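Dual luciferase reads per well after Wingless plasmid stimulation: reporter firefly light and Renilla control light; activity is firefly divided by Renilla, a ratio not deposited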
- Direction: firefly reporter light: higher = more Wg reporter light, before normalisation; Renilla control light: higher = more transfected or surviving cells
- Rule for the call: 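Strong candidates differ from their plate mean by at least two out of four per-plate statistical tests; weak candidates meet just one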
- Meaning of the calls: active = candidate regulator (raises or lowers reporter); inactive = not a candidate

target	DRSC id	reporter change call, replicate 1	firefly reporter light, replicate 1	firefly reporter light, replicate 2	Renilla control light, replicate 1	Renilla control light, replicate 2
DCTN1-p150 (Dynactin 1, p150 subunit)	DRSC11175		5428		2269	
odd (odd skipped)	DRSC00832	Wg reporter activity raised (active)	4179	7610	301	272
lobo (lost boys)	DRSC14662		19396		14277	
lobo (lost boys)	DRSC14663		13568		14257	
CG9896	DRSC03962		21011		12257	
CG9896	DRSC04594		2985	6956	838	2443
CG31624	DRSC02617		17480		3786	
Atx-1 (Ataxin 1)	DRSC18365		17798		9744	
CG32461	DRSC11594		3781		1367	
CanB2 (Calcineurin B2)	DRSC07355		4596		1228	
Arp10 (Actin-related protein 10)	DRSC19448		1408	6243	656	1746
CG9624	DRSC16523		11611		1946	
PolZ1 (DNA polymerase zeta subunit 1)	DRSC06800		10474		3640	
Polr2M (RNA polymerase II subunit M)	DRSC15513		18443		3387	
IP3K2 (Inositol 1,4,5-triphosphate kinase 2)	DRSC19500		24650		11828	
IP3K2 (Inositol 1,4,5-triphosphate kinase 2)	DRSC19747		23929		10198	
IP3K2 (Inositol 1,4,5-triphosphate kinase 2)	DRSC22614		7.41e5	6.84e5	3.09e5	1.66e5
CG7924	DRSC10931		3654		1536	
Tsp26A (Tetraspanin 26A)	DRSC03135		3008	8016	940	2362
CG9164	DRSC19087		3389		294	
CG9164	DRSC20162		3186	7441	1408	2891
CG9609	DRSC20199		2520	6086	1113	2112
MESR6 (Misexpression suppressor of ras 6)	DRSC10720		7943		2467	
sll (slalom)	DRSC16271		2544	6260	1008	1712
brk (brinker)	DRSC18745		11939		3717	
CG15628	DRSC00256	Wg reporter activity raised (active)	40230		3708	
CG15628	DRSC00463		2400	9104	1044	2534
spn-F	DRSC14475		1741	6357	800	1826
CG1983	DRSC15410		9547		3348	

Look-ups from the entries so far:
CG9164 [DRSC19087], firefly reporter light, replicate 1: 3389
PolZ1 (DNA polymerase zeta subunit 1) [DRSC06800], firefly reporter light, replicate 1 = 10474
